# Measured values from the supplement of paper PMC12462457.
# Counter-ions that a name gives are not always drawn. ± gives the standard deviation of the averaged measurements. Some of the results follow. This data set is noisy: repeats of one test often differ as much as different tests do.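 Cells were counted by imaging DAPI-stained nuclei, and cells lacking phalloidin-stained cytoplasm were excluded as dead. Each well's count was divided by the median count of the vehicle wells on the same plate, and values were averaged over two replicate plates.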
# Tested on: OVCAR8
# Test: cell count relative to DMSO vehicle (fold change); higher = more surviving senescent cells (less killing)
# Settings: senescence inducer: cisplatin 10 µM 48 h, then 6 d recovery (CP senescent), exposure time 24 h
SMILES,cell count (compound dose 1 µM),cell count (compound dose 5 µM)
CCCCc1nc2cc(/C=C/C(=O)NO)ccc2n1CCN(CC)CC [Pracinostat (SB939)],0.468 ± 0.0078,0.267 ± 0.067
CS(=O)(=O)c1ncc(Cl)c(C(=O)O)n1,0.73 ± 0.057,0.521 ± 0.15
CCc1c(C)sc(NC(=S)NC(=O)c2ccc(Cl)cc2)c1C(N)=O,1.02 ± 0.11,0.61 ± 0.17
N=C(N)Nc1ccc(C(=O)Oc2ccc3cc(C(=N)N)ccc3c2)cc1 [Nafamostat (mesylate)],1.15 ± 0.03,0.807 ± 0.61
NCCN1C(=O)c2cccc3c(Sc4ccc(Br)cc4)ccc(c23)C1=O,1.07 ± 0.16,1.22 ± 0.073
CC(C)=CC[C@@H](O)C1=CC(=O)c2c(O)ccc(O)c2C1=O [Shikonin],0.992 ± 0.14,0.981 ± 0.18
COc1ccc2ccc(=O)oc2c1CC=C(C)C [Osthole],0.736 ± 0.054,0.816 ± 0.068
CC(=O)Oc1ccccc1C(=O)O,1.024 ± 0.0035,0.87 ± 0.36
O=c1oc2cc(O)ccc2c2ccc(O)cc12 [Urolithin A],1.08 ± 0.079,0.747 ± 0.16
NCCCCCCNS(=O)(=O)c1cccc2c(Cl)cccc12 [W-7 (hydrochloride)],1.23 ± 0.063,1.17 ± 0.18
C[C@H](NC(=O)/C(C#N)=C/c1cccc(Br)n1)c1ccccc1,0.864 ± 0.062,0.388 ± 0.068
CC1(C)CC[C@]2(C(=O)n3ccnc3)CC[C@]3(C)[C@H](C(=O)C=C4[C@@]5(C)C=C(C#N)C(=O)C(C)(C)[C@@H]5CC[C@]43C)[C@@H]2C1,0.0955 ± 0.0092,0.0205 ± 0.029
O=c1[nH]c(=S)[nH]c(-c2ccccc2)c1Cc1c(O)ccc2ccccc12 [Cambinol],1.11 ± 0.24,1.12 ± 0.34
CCCC(=O)c1c(O)c(Cc2c(O)c(Cc3c(O)c(C)c(OC)c(C(=O)CCC)c3O)c(O)c(C(=O)[C@@H](C)CC)c2O)c(O)c(C)c1OC [Agrimol B],0.962 ± 0.17,0.826 ± 0.12
Cn1nc(C(F)(F)F)cc1-c1ccc(OCc2ccc(Cl)cc2)c(-c2cc(C(F)(F)F)cc(C(F)(F)F)c2)c1O,1.04 ± 0.051,1.07 ± 0.34
CN[C@@H](C)C(=O)N[C@H](C(=O)N1CCC[C@H]1C(=O)N[C@H]1c2ccccc2C[C@H]1OCC#CC#CCO[C@@H]1Cc2ccccc2[C@@H]1NC(=O)[C@@H]1CCCN1C(=O)[C@@H](NC(=O)[C@H](C)NC)C1CCCCC1)C1CCCCC1,0.133 ± 0.062,0.0775 ± 0.035

SMILES,cell count (compound dose 1 µM),cell count (compound dose 5 µM)
CN1CCC(c2c(O)cc(O)c3c(=O)cc(-c4ccccc4Cl)oc23)C1CO (centres undefined) [Riviciclib hydrochloride],1.06 ± 0.026,0.772 ± 0.027
C=C(C)[C@H](CC=C(C)C)Cc1c(O)cc(O)c2c1O[C@H](c1ccc(O)cc1O)CC2=O [Sophoraflavanone G],1.29 ± 0.28,1.21 ± 0.38
Nc1cccc2c1C(=O)N(C1CCC(=O)NC1=O)C2=O (centres undefined) [Pomalidomide],0.866 ± 0.076,0.897 ± 0.12
Cl.Cl.N=C(N)c1ccc2nc(-c3ccc(-c4nc5ccc(C(=N)N)cc5[nH]4)[se]3)[nH]c2c1 [DB1976 (dihydrochloride)],1.29 ± 0.037,1.03 ± 0.28
COc1ccc(S(=O)(=O)Nc2cc(-c3c(O)ccc4ccccc34)c(O)c3ccccc23)cc1,0.865 ± 0.09,0.533 ± 0.15
O=C1Nc2ccccc2/C1=C1/Nc2ccccc2C1=O [Indirubin],0.688 ± 0.18,0.732 ± 0.11
COc1cc(C(=O)O)ccc1NC(=O)[C@@H]1N[C@@H](CC(C)(C)C)[C@](C#N)(c2ccc(Cl)cc2F)[C@H]1c1cccc(Cl)c1F [Idasanutlin],1.08 ± 0.059,0.896 ± 0.024
CC1(C)CCC(C)(C)c2cc(NC(=O)c3ccc(C(=O)O)cc3)ccc21 [Tamibarotene],1.18 ± 0.063,1.16 ± 0.15
Cc1cc(C)c(Nc2ccnc(Nc3ccc(C#N)cc3)n2)c(C)c1 [Dapivirine],0.901 ± 0.019,0.894 ± 0.042
C[n+]1cc2c3c(ccc2c2ccc4cc5c(cc4c21)OCO5)OCO3,0.755 ± 0.17,0.0875 ± 0.049
Nc1ncnc2c1ncn2[C@@H]1O[C@H](CO)[C@@H](O)[C@H]1O [Adenosine],1.38 ± 0.14,0.853 ± 0.35
CC(=O)O[C@@]12CO[C@@H]1C[C@H](O)[C@@]1(C)C(=O)[C@H](O)C3=C(C)[C@@H](OC(=O)[C@H](O)[C@@H](NC(=O)OC(C)(C)C)c4ccccc4)C[C@@](O)([C@@H](OC(=O)c4ccccc4)[C@H]21)C3(C)C [Docetaxel],0.778 ± 0.11,0.667 ± 0.07
O=C(/C=C/c1ccccc1)NC(NC(=S)Nc1cccc2cccnc12)C(Cl)(Cl)Cl (centres undefined) [Salubrinal],0.928 ± 0.18,1.0925 ± 0.00071
CO[C@H]1C[C@@H]2CC[C@@H](C)[C@@](O)(O2)C(=O)C(=O)N2CCCC[C@H]2C(=O)O[C@H]([C@H](C)C[C@@H]2CC[C@@H](OCCO)[C@H](OC)C2)CC(=O)[C@H](C)/C=C(\C)[C@@H](O)[C@@H](OC)C(=O)[C@H](C)C[C@H](C)/C=C/C=C/C=C/1C [Everolimus],0.872 ± 0.079,0.635 ± 0.091
Nc1ccn([C@@H]2O[C@H](CO)[C@@H](O)C2(F)F)c(=O)n1 [Gemcitabine HCl],1.13 ± 0.054,0.734 ± 0.25
Nc1ccn([C@@H]2O[C@H](CO)[C@@H](O)C2(F)F)c(=O)n1 [Gemcitabine],1.077 ± 0.0035,0.878 ± 0.076

# Random excerpt: 2 entries already listed.
SMILES,cell count (compound dose 1 µM),cell count (compound dose 5 µM)
Cn1nc(C(F)(F)F)cc1-c1ccc(OCc2ccc(Cl)cc2)c(-c2cc(C(F)(F)F)cc(C(F)(F)F)c2)c1O,1.04 ± 0.051,1.07 ± 0.34
COc1cc(C(=O)O)ccc1NC(=O)[C@@H]1N[C@@H](CC(C)(C)C)[C@](C#N)(c2ccc(Cl)cc2F)[C@H]1c1cccc(Cl)c1F [Idasanutlin],1.08 ± 0.059,0.896 ± 0.024
